These are yes or no findings as the source states them, for the method shown.
Molecular target: C-terminal cargo-binding segment of human Pex5p (residues 315-639) (human) (UniProt P50542)
Test: SEC-MALS; analytical gel filtration and static light scattering (MiniDAWN); complex formed by mixing purified Pex5p(C) and AGT; single components also run; both purified

C-terminal cargo-binding segment of human Pex5p (residues 315-639) (from UniProt P50542 315-639) (domain or fragment)
binding: no binding
